In PubChem BioAssay AID248 (DTP/NCI, 2004):
The list is a part of this screen's results and no random one: it gathers tests that were run many times, whatever their T/C, doses with no T/C, and many T/C values between a quarter and a half above the control. Other doses and runs of a compound stand elsewhere. T/C is the treated group as % of the vehicle group. Some entries give survivors of the animals treated and no T/C: the source files T/C as zero there, which appears to mark a toxic dose or a test without result, not a measured value. Some survivor counts are full or nearly so, which does not show that the dose was tolerated: survival well below the control is almost never listed, so the zero probably covers shortened survival too. Survivors were counted at the toxicity check, usually on the fifth day, unless a day is given; later deaths do not show. Schedule codes are those of the source, taken here to give the interval after Q, in days (D) or hours (H), and the number of doses after X. Some schedules carry Z or #; the key to these is not given. Some entries were tested several times; the results are listed from low to high. For survival time, this PubChem deposit counts one and a half times the control or more as active, and values a quarter to a half above the control carry no call in these data; other NCI protocols may use other cut-offs. Some T/C values carry the count of animals alive at the toxicity check (mostly the fifth day); where none is given, no animal had died by that day.

Test system: L1210 leukemia ip in BDF1 mice, survival T/C
Experiment: NCI In Vivo Anticancer Drug Screen. Data for tumor model L1210 Leukemia (intraperitoneal) in B6D2F1 (BDF1) mice
Conditions: T/C endpoint: mean survival time, higher T/C = longer survival
[1] = dose: 200.0 mg/kg/injection, schedule: Q01DX001 (ip), vehicle: Klucel (hydroxypropylcellulose) (HPC)
[2] = dose: 400.0 mg/kg/injection, schedule: Q01DX001 (ip), vehicle: Klucel (hydroxypropylcellulose) (HPC)
[3] = dose: 400.0 mg/kg/injection, schedule: Q01DX001 (ip), vehicle: carboxymethylcellulose (CMC)
[4] = dose: 400.0 mg/kg/injection, schedule: Q04DX003 (ip), vehicle: Klucel (hydroxypropylcellulose) (HPC)
[5] = dose: 200.0 mg/kg/injection, schedule: Q01DX001 (ip), vehicle: saline
[6] = dose: 400.0 mg/kg/injection, schedule: Q01DX001 (ip), vehicle: saline
[7] = dose: 400.0 mg/kg/injection, schedule: Q01DX009 (ip), vehicle: Klucel (hydroxypropylcellulose) (HPC)

O=NN(CCCl)C(=O)CCCCC(=O)N(CCCl)N=O
T/C (dose: 6.25 mg/kg/injection, schedule: Q01DX001 (ip), vehicle: Klucel (hydroxypropylcellulose) (HPC), evaluated on day 5): 128 % of control | T/C (dose: 6.25 mg/kg/injection, schedule: Q01DX001 (ip), vehicle: Klucel (hydroxypropylcellulose) (HPC), evaluated on day 45): 128 % of control | T/C (dose: 12.5 mg/kg/injection, schedule: Q01DX001 (ip), vehicle: Klucel (hydroxypropylcellulose) (HPC), evaluated on day 5): 132 % of control | T/C (dose: 12.5 mg/kg/injection, schedule: Q01DX001 (ip), vehicle: Klucel (hydroxypropylcellulose) (HPC), evaluated on day 45): 132 % of control | T/C (dose: 12.5 mg/kg/injection, schedule: Q01DX001 (ip), vehicle: carboxymethylcellulose (CMC)): 131 % of control | T/C (dose: 25.0 mg/kg/injection, schedule: Q01DX001 (ip), vehicle: Klucel (hydroxypropylcellulose) (HPC), evaluated on day 5): 133 % of control | T/C (dose: 25.0 mg/kg/injection, schedule: Q01DX001 (ip), vehicle: Klucel (hydroxypropylcellulose) (HPC), evaluated on day 45): 133 % of control | T/C (dose: 50.0 mg/kg/injection, schedule: Q01DX001 (ip), vehicle: Klucel (hydroxypropylcellulose) (HPC), evaluated on day 5): 148 [8 of 9 alive] and 163 % of control | T/C (dose: 50.0 mg/kg/injection, schedule: Q01DX001 (ip), vehicle: Klucel (hydroxypropylcellulose) (HPC), evaluated on day 45): 131 [8 of 9 alive] and 163 % of control | survivor count (dose: 100.0 mg/kg/injection, schedule: Q01DX001 (ip), vehicle: Klucel (hydroxypropylcellulose) (HPC)): 9 of 10 | survivor count [1]: 6 of 10 | survivor count (dose: 300.0 mg/kg/injection, schedule: Q01DX001 (ip), vehicle: carboxymethylcellulose (CMC)): 5 of 6 | survivor count [2]: 0 of 10 and 10 of 10 | survivor count [3]: 1 of 6 | survivor count (dose: 500.0 mg/kg/injection, schedule: Q01DX001 (ip), vehicle: carboxymethylcellulose (CMC)): 0 of 6 | survivor count (dose: 600.0 mg/kg/injection, schedule: Q01DX001 (ip), vehicle: carboxymethylcellulose (CMC)): 0 of 6 | survivor count (dose: 800.0 mg/kg/injection, schedule: Q01DX001 (ip), vehicle: carboxymethylcellulose (CMC)): 0 of 6 | survivor count (dose: 1000.0 mg/kg/injection, schedule: Q01DX001 (ip), vehicle: carboxymethylcellulose (CMC)): 0 of 6

O=C(O)CCCC1CCCCC1.[Cu+2]
survivor count (dose: 20.0 mg/kg/injection, schedule: Q04DX003 (ip), vehicle: Klucel (hydroxypropylcellulose) (HPC)): 3 of 6 | survivor count (dose: 40.0 mg/kg/injection, schedule: Q04DX003 (ip), vehicle: Klucel (hydroxypropylcellulose) (HPC)): 1 of 6 | survivor count (dose: 80.0 mg/kg/injection, schedule: Q04DX003 (ip), vehicle: Klucel (hydroxypropylcellulose) (HPC)): 0 of 6 | survivor count (dose: 100.0 mg/kg/injection, schedule: Q04DX003 (ip), vehicle: Klucel (hydroxypropylcellulose) (HPC)): 1 of 6 | survivor count (dose: 200.0 mg/kg/injection, schedule: Q04DX003 (ip), vehicle: Klucel (hydroxypropylcellulose) (HPC)): 0 of 6 | survivor count [4]: 0 of 6

CS/C(N)=N\NC(N)=S
survivor count [2]: 6 of 6

CCOC(=O)CC1NCCc2c1[nH]c1ccccc21 (configuration not stated)
survivor count (dose: 100.0 mg/kg/injection, schedule: Q01DX001 (ip), vehicle: saline): 0 of 6 | survivor count [5]: 0 of 6 | survivor count [6]: 0 of 6

S=C1OC(c2ccccc2)(c2ccccc2)c2ccsc21
survivor count (dose: 100.0 mg/kg/injection, schedule: Q01DX001 (ip), vehicle: saline with Tween-80): 3 of 3 | survivor count (dose: 200.0 mg/kg/injection, schedule: Q01DX001 (ip), vehicle: saline with Tween-80): 2 of 3 | survivor count (dose: 400.0 mg/kg/injection, schedule: Q01DX001 (ip), vehicle: saline with Tween-80): 0 of 3

O=c1c(Br)c[nH]cc1Br
survivor count (dose: 200.0 mg/kg/injection, schedule: Q01DX009 (ip), vehicle: Klucel (hydroxypropylcellulose) (HPC)): 0 of 6 | survivor count [7]: 0 of 6

Nc1ccc(Nc2ccncc2)cc1
survivor count [4]: 1 of 6

CCOP(=O)(Cc1ccc(N(CCI)CCI)cc1)OCC
survivor count (dose: 300.0 mg/kg/injection, schedule: Q01DX001 (ip), vehicle: saline): 2 of 6

CCOC(=O)c1cnc2ccc(OC)cc2c1
survivor count (dose: 500.0 mg/kg/injection, schedule: Q01DX009 (ip), vehicle: saline + alcohol): 5 of 6

CCCCCCCCCCOP(N)(=O)OCCCCCCCCCC
survivor count (dose: 200.0 mg/kg/injection, schedule: Q04DX003 (ip), vehicle: carboxymethylcellulose (CMC)): 6 of 6 | survivor count (dose: 340.0 mg/kg/injection, schedule: Q01DX009 (ip), vehicle: carboxymethylcellulose (CMC)): 0 of 6

C=C(C(=O)OC1CC2CCC(C1)N2C)c1ccccc1 (configuration not stated)
survivor count (dose: 10.0 mg/kg/injection, schedule: Q01DX Z (ip), vehicle: saline): 2 of 6 | survivor count (dose: 40.0 mg/kg/injection, schedule: Q01DX001 (ip), vehicle: carboxymethylcellulose (CMC)): 3 of 6 | survivor count (dose: 80.0 mg/kg/injection, schedule: Q01DX001 (ip), vehicle: carboxymethylcellulose (CMC)): 0 of 6 | survivor count (dose: 100.0 mg/kg/injection, schedule: Q01DX001 (ip), vehicle: carboxymethylcellulose (CMC)): 0 of 4 | survivor count (dose: 200.0 mg/kg/injection, schedule: Q01DX001 (ip), vehicle: carboxymethylcellulose (CMC)): 0 of 4 | survivor count [3]: 0 of 4

CN=C(N)c1cccc(NC(=O)c2ccc(C(=O)Nc3cccc(C(N)=NC)c3)cc2)c1
survivor count (dose: 60.0 mg/kg/injection, schedule: Q01DX Z (ip), vehicle: saline): 0 of 6 | survivor count (dose: 120.0 mg/kg/injection, schedule: Q01DX Z (ip), vehicle: saline): 0 of 6

CCCCS(=O)(=O)OCCCCOS(=O)(=O)CCCC
survivor count (dose: 540.0 mg/kg/injection, schedule: Q01DX Z (ip), vehicle: saline): 0 of 6

C=CCNC(=O)Oc1cccc(NC(=O)/C=C/C)c1
survivor count (dose: 200.0 mg/kg/injection, schedule: Q01DX009 (ip), vehicle: saline with Tween-80): 6 of 6 | survivor count (dose: 400.0 mg/kg/injection, schedule: Q01DX009 (ip), vehicle: saline with Tween-80): 5 of 6

COc1cc2ccc3c(c2cc1OC)CN(C)CC3
survivor count (dose: 200.0 mg/kg/injection, schedule: Q04DX003 (ip), vehicle: saline): 0 of 6 | survivor count (dose: 400.0 mg/kg/injection, schedule: Q04DX003 (ip), vehicle: saline): 0 of 6

CN(C=O)C(=S)[S][Sb]([S]C(=S)Nc1ccc(S(=O)(=O)Nc2ccc(N=Nc3ccccc3)cc2)cc1)[S]C(=S)N(C)C=O
survivor count (dose: 400.0 mg/kg/injection, schedule: Q01DX001 (ip), vehicle: steroid suspending solution): 0 of 6

N/C(=N\O)c1cn(C2OC(CO)C(O)C2O)c2nc(Cl)nc(N)c12 (configuration not stated)
survivor count (dose: 100.0 mg/kg/injection, schedule: Q01DX005 (ip), vehicle: saline): 6 of 6 | T/C [1]: 125 % of control | T/C (dose: 200.0 mg/kg/injection, schedule: Q01DX005 (ip), vehicle: saline): 127 % of control

Brc1ncc2ccccc2c1Br
survivor count [4]: 2 of 6

C=Cc1ccc(N)cc1
survivor count (dose: 100.0 mg/kg/injection, schedule: Q01DX009 (ip), vehicle: saline with Tween-80): 6 of 6 | survivor count (dose: 400.0 mg/kg/injection, schedule: Q04DX003 (ip), vehicle: saline with Tween-80): 6 of 6

CCCCCCOP(=O)(N1CC1C)N1CC1C (configuration not stated)
T/C (dose: 100.0 mg/kg/injection, schedule: Q01DX Z (ip), vehicle: saline): 129 % of control [4 of 6 alive]

c1ccc2c(CC3=NCCN3)cccc2c1
survivor count (dose: 50.0 mg/kg/injection, schedule: Q01DX009 (ip), vehicle: saline with Tween-80): 3 of 6

[O-][n+]1ccccc1CCl
survivor count [5]: 2 of 4 | survivor count [6]: 0 of 4

COc1ccc(COC(=O)N=[N+]=[N-])cc1
survivor count (dose: 100.0 mg/kg/injection, schedule: Q01DX009 (ip), vehicle: Klucel (hydroxypropylcellulose) (HPC)): 5 of 6 | survivor count [1]: 0 of 6 | survivor count [2]: 1 of 6

O=C(CN1C(=O)C(=O)O/C1=C/c1ccccc1)OCc1ccccc1
survivor count [7]: 0 of 6

Nc1ncnc2c1ncn2[C@H]1CC[C@@H](CO)C1
survivor count [6]: 2 of 4
